# In publication PMC5996148:
# “And” between values parts separate entries of the source, which are not always exact repeats. Equal entries are not always repeated. This is one part of the list. For some of these results: The source does not settle which construct or isoform was used.
# What was measured:
# Assay in all cases: protein microarray (ProtoArray v5.0), streptavidin-Alexa Fluor 647
# Settings in all cases: 3'-biotin; 20 mM Tris (pH 7.5), 5 mM MgCl2, 100 mM KCl, 0.1% Tween-20, A/T-rich and random oligonucleotide blockers; temperature not stated; high values mean tight binding
# [1] = system: FAM128A (human)
# [2] = system: FAM131C (human)
# [3] = system: FAM134B (human)
# [4] = system: FAM136A (human)
# [5] = target: T1, FAM13A1 (UniProt O94988)
# T1 sequence: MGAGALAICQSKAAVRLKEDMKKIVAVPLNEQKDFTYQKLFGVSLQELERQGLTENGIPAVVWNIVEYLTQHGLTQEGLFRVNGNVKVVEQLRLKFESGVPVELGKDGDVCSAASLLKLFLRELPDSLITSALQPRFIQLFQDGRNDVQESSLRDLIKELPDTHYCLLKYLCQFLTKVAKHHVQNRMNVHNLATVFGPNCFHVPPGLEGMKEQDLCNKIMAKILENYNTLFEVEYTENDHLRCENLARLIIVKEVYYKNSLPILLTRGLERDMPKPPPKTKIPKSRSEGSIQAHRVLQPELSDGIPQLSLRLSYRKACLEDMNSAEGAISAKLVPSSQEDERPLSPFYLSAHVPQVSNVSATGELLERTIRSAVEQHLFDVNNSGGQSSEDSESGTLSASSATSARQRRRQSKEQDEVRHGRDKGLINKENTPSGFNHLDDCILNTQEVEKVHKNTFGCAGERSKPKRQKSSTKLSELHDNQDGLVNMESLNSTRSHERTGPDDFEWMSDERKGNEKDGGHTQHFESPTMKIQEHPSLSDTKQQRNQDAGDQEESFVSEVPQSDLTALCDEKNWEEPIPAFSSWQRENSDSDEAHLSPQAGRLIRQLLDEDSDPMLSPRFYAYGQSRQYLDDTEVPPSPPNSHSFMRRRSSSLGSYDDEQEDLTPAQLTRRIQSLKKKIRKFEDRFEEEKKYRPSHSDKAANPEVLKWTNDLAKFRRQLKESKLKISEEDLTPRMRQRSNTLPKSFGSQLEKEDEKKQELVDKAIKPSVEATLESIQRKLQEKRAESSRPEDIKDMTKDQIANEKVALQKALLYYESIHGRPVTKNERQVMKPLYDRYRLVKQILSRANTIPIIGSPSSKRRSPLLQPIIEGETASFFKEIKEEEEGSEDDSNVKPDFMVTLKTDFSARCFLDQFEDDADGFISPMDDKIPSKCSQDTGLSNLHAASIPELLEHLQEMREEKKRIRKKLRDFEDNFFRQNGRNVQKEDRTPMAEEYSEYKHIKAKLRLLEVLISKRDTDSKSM
# [6] = system: FAM19A3 (human)
# [7] = system: FAM21C (human)
# [8] = system: FAM26A (human)
# [9] = system: FAM33A (human)
# [10] = system: FAM3A (human)
sequence,measurement,setting,value
GGGAGGCTGAGGCAGG [G4-1 biotinylated (PQS2)],binding signal,[1],-0.308 z-score
same,binding signal,[2],-0.323 z-score
same,binding signal,[3],-0.332 z-score
same,binding signal,[4],-0.335 z-score
same,binding signal,[5],-0.306 z-score
same,binding signal,[6],-0.264 z-score
same,binding signal,[7],-0.308 z-score
same,binding signal,[8],-0.338 z-score
same,binding signal,[9],-0.289 z-score
same,binding signal,[10],-0.333 z-score and -0.305 z-score
